These are yes or no findings as the source states them, for the method shown. Binding seen in cells or lysates may run through a third protein. Some binding calls cover weakened binding; strength is not graded here. One block for each molecule: values may come before it.
Legend:
[1] = biological target: cleaved caspase-9, endogenous in A549 cell-free extracts (human (endogenous in A549)) (UniProt P55211); experiment: co-sedimentation; A549 cell-free extract with 50 μg/mL Cyt c and 1 mM dATP, without DNA, 30 °C for 2 h; glycerol gradient ultracentrifugation (10%–45%); fractions immunoblotted for Apaf-1, RIP2, caspase-9
Flag-tagged Cyt c = Flag-tagged Cyt c (UniProt P99999); experiment: co-IP; HA-tagged full-length Apaf-1 WT, DM or CM co-expressed with Flag-tagged Cyt c in HEK293T for 24 h; anti-Flag beads; blotted with anti-Flag or anti-HA
[2] = biological target: RIP2, endogenous in primary mouse ear fibroblasts (mouse (endogenous in primary ear fibroblasts)) (UniProt P58801); experiment: cross-linking; chemical cross-linkers in lysates from primary mouse ear fibroblasts transfected with HT-DNA or ISD; immunoblot of endogenous RIP2
[3] = biological target: T1, Apaf-1, endogenous in A549 cell-free extracts (human (endogenous in A549)), O14727; experiment: co-sedimentation; A549 cell-free extract with 50 μg/mL Cyt c and 1 mM dATP, without DNA, 30 °C for 2 h; glycerol gradient ultracentrifugation (10%–45%); fractions immunoblotted for Apaf-1, RIP2, caspase-9; details: remark: other sources report otherwise
T1 chain: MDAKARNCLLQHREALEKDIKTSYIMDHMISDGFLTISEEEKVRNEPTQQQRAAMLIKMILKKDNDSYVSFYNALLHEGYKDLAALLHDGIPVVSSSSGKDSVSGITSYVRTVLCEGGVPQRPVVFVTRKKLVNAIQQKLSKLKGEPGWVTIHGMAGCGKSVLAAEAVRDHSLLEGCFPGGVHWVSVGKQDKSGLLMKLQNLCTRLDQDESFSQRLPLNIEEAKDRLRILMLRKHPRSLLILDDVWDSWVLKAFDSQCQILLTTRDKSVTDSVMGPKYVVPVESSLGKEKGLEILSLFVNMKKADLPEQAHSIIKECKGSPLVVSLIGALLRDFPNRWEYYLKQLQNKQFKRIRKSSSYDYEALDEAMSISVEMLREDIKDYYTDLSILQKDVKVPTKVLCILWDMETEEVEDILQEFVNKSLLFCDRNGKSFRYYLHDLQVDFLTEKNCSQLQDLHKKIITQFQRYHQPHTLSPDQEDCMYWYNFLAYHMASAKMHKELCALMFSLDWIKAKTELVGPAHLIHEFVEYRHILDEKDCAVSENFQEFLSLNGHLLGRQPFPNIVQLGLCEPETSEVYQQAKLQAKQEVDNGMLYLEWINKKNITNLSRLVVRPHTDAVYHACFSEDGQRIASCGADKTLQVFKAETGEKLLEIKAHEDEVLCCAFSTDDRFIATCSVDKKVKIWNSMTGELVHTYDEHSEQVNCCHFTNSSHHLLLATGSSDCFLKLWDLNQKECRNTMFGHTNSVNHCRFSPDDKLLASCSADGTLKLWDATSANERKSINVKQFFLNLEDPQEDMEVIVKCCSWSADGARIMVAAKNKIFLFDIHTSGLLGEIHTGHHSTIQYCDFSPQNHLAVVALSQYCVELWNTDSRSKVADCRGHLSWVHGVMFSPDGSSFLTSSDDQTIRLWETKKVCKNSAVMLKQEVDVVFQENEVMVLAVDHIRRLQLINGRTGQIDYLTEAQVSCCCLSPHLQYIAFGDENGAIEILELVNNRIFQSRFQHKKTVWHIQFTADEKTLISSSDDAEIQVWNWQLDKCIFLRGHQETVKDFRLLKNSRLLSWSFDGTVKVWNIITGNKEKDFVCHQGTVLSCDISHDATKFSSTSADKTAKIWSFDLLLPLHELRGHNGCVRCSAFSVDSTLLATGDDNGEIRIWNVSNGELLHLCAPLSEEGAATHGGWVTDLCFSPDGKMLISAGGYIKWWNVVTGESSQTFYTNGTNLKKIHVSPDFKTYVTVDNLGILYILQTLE

Sequences of proteins named here, by UniProt entry; tags and fusion partners are left off.
UniProt P55211: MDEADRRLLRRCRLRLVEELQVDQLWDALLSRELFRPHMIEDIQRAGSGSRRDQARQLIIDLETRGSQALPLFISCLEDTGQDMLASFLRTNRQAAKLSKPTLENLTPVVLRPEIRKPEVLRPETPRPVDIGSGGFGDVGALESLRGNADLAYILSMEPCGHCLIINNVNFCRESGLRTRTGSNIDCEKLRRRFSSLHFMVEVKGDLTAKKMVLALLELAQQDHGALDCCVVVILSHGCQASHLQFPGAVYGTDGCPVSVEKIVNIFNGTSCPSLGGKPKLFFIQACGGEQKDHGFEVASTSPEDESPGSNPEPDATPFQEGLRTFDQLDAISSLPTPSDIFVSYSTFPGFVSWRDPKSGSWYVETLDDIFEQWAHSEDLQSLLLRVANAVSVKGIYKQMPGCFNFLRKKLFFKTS
UniProt P99999: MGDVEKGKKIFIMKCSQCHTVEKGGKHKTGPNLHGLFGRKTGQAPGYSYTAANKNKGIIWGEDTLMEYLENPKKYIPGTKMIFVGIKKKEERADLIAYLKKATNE
UniProt P58801: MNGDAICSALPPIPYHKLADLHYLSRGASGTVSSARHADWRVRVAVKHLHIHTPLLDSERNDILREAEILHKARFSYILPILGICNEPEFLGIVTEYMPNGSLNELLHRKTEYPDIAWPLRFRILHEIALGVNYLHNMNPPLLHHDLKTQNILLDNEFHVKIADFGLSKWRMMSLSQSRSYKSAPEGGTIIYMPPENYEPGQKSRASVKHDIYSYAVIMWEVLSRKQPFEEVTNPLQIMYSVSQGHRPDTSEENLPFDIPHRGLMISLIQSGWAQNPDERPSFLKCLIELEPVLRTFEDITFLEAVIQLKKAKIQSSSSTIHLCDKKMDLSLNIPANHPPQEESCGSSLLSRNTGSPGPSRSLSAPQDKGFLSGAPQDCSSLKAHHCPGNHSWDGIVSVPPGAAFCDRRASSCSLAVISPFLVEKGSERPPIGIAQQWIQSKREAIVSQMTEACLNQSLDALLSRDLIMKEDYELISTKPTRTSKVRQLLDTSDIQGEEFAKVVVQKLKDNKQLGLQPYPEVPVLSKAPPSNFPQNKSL
UniProt O43353: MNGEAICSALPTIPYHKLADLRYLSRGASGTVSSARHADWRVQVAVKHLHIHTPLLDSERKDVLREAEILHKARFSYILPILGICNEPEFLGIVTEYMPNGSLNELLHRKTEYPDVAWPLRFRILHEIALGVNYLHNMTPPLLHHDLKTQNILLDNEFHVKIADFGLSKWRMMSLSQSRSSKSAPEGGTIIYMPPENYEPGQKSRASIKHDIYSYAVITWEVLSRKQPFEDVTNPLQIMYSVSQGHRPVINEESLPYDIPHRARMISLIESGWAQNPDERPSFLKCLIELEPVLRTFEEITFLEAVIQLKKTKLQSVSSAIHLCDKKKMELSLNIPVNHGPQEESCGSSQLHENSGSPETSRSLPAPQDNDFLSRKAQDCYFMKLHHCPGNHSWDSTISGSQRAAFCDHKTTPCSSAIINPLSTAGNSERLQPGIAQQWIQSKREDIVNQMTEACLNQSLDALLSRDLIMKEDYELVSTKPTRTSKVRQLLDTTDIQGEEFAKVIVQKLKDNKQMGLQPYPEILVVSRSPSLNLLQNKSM

binding [1]: no binding
Molecule: RIP2, endogenous in A549 cells (from UniProt O43353 1-540)

binding [3]: binds
B1: Apaf-1, endogenous in A549 cell-free extracts, O14727 1-1248 (protein)
chain: MDAKARNCLLQHREALEKDIKTSYIMDHMISDGFLTISEEEKVRNEPTQQQRAAMLIKMILKKDNDSYVSFYNALLHEGYKDLAALLHDGIPVVSSSSGKDSVSGITSYVRTVLCEGGVPQRPVVFVTRKKLVNAIQQKLSKLKGEPGWVTIHGMAGCGKSVLAAEAVRDHSLLEGCFPGGVHWVSVGKQDKSGLLMKLQNLCTRLDQDESFSQRLPLNIEEAKDRLRILMLRKHPRSLLILDDVWDSWVLKAFDSQCQILLTTRDKSVTDSVMGPKYVVPVESSLGKEKGLEILSLFVNMKKADLPEQAHSIIKECKGSPLVVSLIGALLRDFPNRWEYYLKQLQNKQFKRIRKSSSYDYEALDEAMSISVEMLREDIKDYYTDLSILQKDVKVPTKVLCILWDMETEEVEDILQEFVNKSLLFCDRNGKSFRYYLHDLQVDFLTEKNCSQLQDLHKKIITQFQRYHQPHTLSPDQEDCMYWYNFLAYHMASAKMHKELCALMFSLDWIKAKTELVGPAHLIHEFVEYRHILDEKDCAVSENFQEFLSLNGHLLGRQPFPNIVQLGLCEPETSEVYQQAKLQAKQEVDNGMLYLEWINKKNITNLSRLVVRPHTDAVYHACFSEDGQRIASCGADKTLQVFKAETGEKLLEIKAHEDEVLCCAFSTDDRFIATCSVDKKVKIWNSMTGELVHTYDEHSEQVNCCHFTNSSHHLLLATGSSDCFLKLWDLNQKECRNTMFGHTNSVNHCRFSPDDKLLASCSADGTLKLWDATSANERKSINVKQFFLNLEDPQEDMEVIVKCCSWSADGARIMVAAKNKIFLFDIHTSGLLGEIHTGHHSTIQYCDFSPQNHLAVVALSQYCVELWNTDSRSKVADCRGHLSWVHGVMFSPDGSSFLTSSDDQTIRLWETKKVCKNSAVMLKQEVDVVFQENEVMVLAVDHIRRLQLINGRTGQIDYLTEAQVSCCCLSPHLQYIAFGDENGAIEILELVNNRIFQSRFQHKKTVWHIQFTADEKTLISSSDDAEIQVWNWQLDKCIFLRGHQETVKDFRLLKNSRLLSWSFDGTVKVWNIITGNKEKDFVCHQGTVLSCDISHDATKFSSTSADKTAKIWSFDLLLPLHELRGHNGCVRCSAFSVDSTLLATGDDNGEIRIWNVSNGELLHLCAPLSEEGAATHGGWVTDLCFSPDGKMLISAGGYIKWWNVVTGESSQTFYTNGTNLKKIHVSPDFKTYVTVDNLGILYILQTLE

Further lines, the molecule ahead of its results:

Molecule: HA-tagged full-length human Apaf-1 (apoptotic protease activating factor 1) (from UniProt O14727 1-1248)
binding (Flag-tagged Cyt c): binds

Molecule: RIP2, endogenous in primary mouse ear fibroblasts (from UniProt P58801 1-539)
binding [2]: binds

— publication PMC11747288
